No constants are given. Whether binding was seen depends on the method and setting.
Biological target: YfiN_(GGDEF), shorter construct containing only the GGDEF domain of YfiN (Pseudomonas aeruginosa) (UniProt Q9I4L5)
Assay: SEC; Superdex 75 10/300, 10 mM Tris-HCl pH 8.0, 100 mM NaCl, 2% glycerol, after the affinity chromatography step; both purified

binding: no binding
B1: YfiN_(GGDEF), shorter construct containing only the GGDEF domain of YfiN (domain or fragment, UniProt Q9I4L5 232-435)
chain: ESWQARLQDENASLAHQAHHDSLTSLPNRAFFEGRLSRALRDANEHREQLAVLFIDSDRFKEINDRLGHAAGDTVLVNIAMRIRGQLRESDLVARLGGDEFAVLLAPLASGADALRIADNIIASMQAPIRLSDGSTVSTSLTIGIALYPEHADTPAALLHDADMAMYIAKRQARGSRRLAELNDPRILQEEKEIDSATPEAPPK
